# Results published in the supplement of paper PMC9671908.
# Where a name gives a salt, the structure may show the parent alone. The list shows a part of the results. Most values come without repeats; read them as rough.
# What was measured:
# MIA PaCa-2 parental = test: parental cell viability relative to untreated parental control; higher = more surviving cells; conditions: treatment time: 9 days
# MIA PaCa-2 persister = test: persister cell viability relative to untreated persister control; higher = more surviving persister cells; conditions: treatment time: 9 days; cell state: persister (100 nM gemcitabine + 100 nM Torin1)
SMILES,parental cell viability (MIA PaCa-2 parental),persister cell viability (MIA PaCa-2 persister)
CCCS(=O)(=O)Nc1ccc(F)c(C(=O)c2c[nH]c3ncc(-c4ccc(Cl)cc4)cc23)c1F (inhibitor concentration: 10µM),103%,105%
CC[C@H](CO)Nc1nc(NCc2ccccc2)c2ncn(C(C)C)c2n1 [Roscovitine] (inhibitor concentration: 30µM),9%,109%
O=S(=O)(NCCSSCCNS(=O)(=O)c1cc(Cl)ccc1Cl)c1cc(Cl)ccc1Cl (inhibitor concentration: 10µM),98%,102%
CC(=O)c1cnc2ccc(-c3cc(Cl)c(O)c(Cl)c3)nc2c1N[C@H]1CC[C@H](CN(C)C)CC1 [OTSSP167 (hydrochloride)] (inhibitor concentration: 10nM),70%,50%
CCC[C@H](N)C(=O)O [L-Norvaline] (inhibitor concentration: 1µM),95%,160%
CN1c2ccc([N+](=O)[O-])cc2N=C(c2ccc(C(=O)O)cc2)c2cc3c(cc21)C(C)(C)CCC3(C)C (inhibitor concentration: 10µM),60%,100%
Cc1cc(Nc2ncc(Cl)c(Nc3ccccc3S(=O)(=O)C(C)C)n2)c(OC(C)C)cc1C1CCNCC1 [Ceritinib] (inhibitor concentration: 1µM),100%,99%
O=C(C=Cc1ccccc1)NC(NC(=S)Nc1ccc(Cl)cc1)C(Cl)(Cl)Cl (stereo unspecified) (inhibitor concentration: 10µM),101%,106%
O=C(O)c1ccc2c(c1)nc(Nc1cccc(Cl)c1)c1ccncc12 [CX-4945/Silmitasertib] (inhibitor concentration: 3µM),105%,61%
Cc1ccc(Oc2ccnc3cc(-c4cnn(C5CCNCC5)c4)ccc23)cc1 (inhibitor concentration: 30µM),100%,97%
CC(=O)Nc1cccc(-n2c(=O)n(C3CC3)c(=O)c3c(Nc4ccc(I)cc4F)n(C)c(=O)c(C)c32)c1 [Trametinib] (inhibitor concentration: 3µM),20%,100%
NC1(c2ccc(-c3nc4ccn5c(=O)[nH]nc5c4cc3-c3ccccc3)cc2)CCC1 (inhibitor concentration: 3µM),91%,91.5%
CC(=O)N[C@@H](CC(=O)O)C(=O)N[C@@H](CCC(=O)O)C(=O)N[C@H](C(=O)N[C@H](C=O)CC(=O)O)C(C)C [Ac-DEVD-CHO (trifluoroacetate-salt)] (inhibitor concentration: 10µM),102%,96%
Cc1cc(Nc2cc(N3CCN(C)CC3)nc(Sc3ccc(NC(=O)C4CC4)cc3)n2)n[nH]1 (inhibitor concentration: 300nM),4%,96.5%
CCOC(=O)C1=C(N)Oc2ccc(Br)cc2C1C(C#N)C(=O)OCC (stereo unspecified) (inhibitor concentration: 10µM),99.5%,98%
Cc1nn(-c2nc3ccc(Cl)c(Cl)c3[nH]2)c(O)c1C1OC(=O)c2ccccc21 (stereo unspecified) (inhibitor concentration: 10µM),100%,66.7%
Cc1c(-c2c(-c3ccc(F)o3)sc3ncnc(O[C@H](Cc4ccccc4OCc4ccnn4CC(F)(F)F)C(=O)O)c23)ccc(OCCN2CCN(C)CC2)c1Cl (inhibitor concentration: 3µM),60%,0%
FC(F)(F)c1cc(C(F)(F)F)c2ccc3nc(-c4nnco4)cn3c2n1 (inhibitor concentration: 3µM),101%,48%
Cc1cc(F)c(C(=O)Nc2cccc(-c3nncn3C(C)C)n2)cc1-n1cnc(C2CC2)c1 [Selonsertib] (inhibitor concentration: 10µM),80%,93.5%
CC[C@H](C)n1cc(C)c2c(C(=O)NCc3c(C)cc(C)[nH]c3=O)cc(-c3ccc(N4CCNCC4)nc3)cc21 (inhibitor concentration: 3µM),100%,149%
CN1C(=O)c2sccc2N(C)c2nc(Nc3ccc(S(N)(=O)=O)cc3)ncc21 (inhibitor concentration: 10µM),13%,98%
C=CC(=O)N1CCC[C@@H](n2nc(-c3ccc(Oc4ccccc4)cc3)c3c(N)ncnc32)C1 [Ibrutinib] (inhibitor concentration: 3µM),102%,102%
COc1ccc(C(=O)N2c3ccccc3Sc3ccc(Cl)cc32)cc1 (inhibitor concentration: 1µM),22%,76%

# Part of the list above, tab-delimited:
SMILES	parental cell viability (MIA PaCa-2 parental)	persister cell viability (MIA PaCa-2 persister)
CC(=O)Nc1cccc(-n2c(=O)n(C3CC3)c(=O)c3c(Nc4ccc(I)cc4F)n(C)c(=O)c(C)c32)c1 [Trametinib] (inhibitor concentration: 3µM)	20%	100%
FC(F)(F)c1cc(C(F)(F)F)c2ccc3nc(-c4nnco4)cn3c2n1 (inhibitor concentration: 3µM)	101%	48%
